Results taken from patent US20250136677A1 (ZOETIS SERVICES, published 2025).
These are yes or no findings as the source states them, for the method shown. Some results given as binding are weak or reduced against the parent protein; the word gives no strength.

Tests used:
[1] = target: T1, equine IL-31 protein (Equine_IL31) (equine); experiment: SPR (Biacore), IL-31 surface, single antibody concentration
T1 construct: Recombinant equine IL-31
T1 chain: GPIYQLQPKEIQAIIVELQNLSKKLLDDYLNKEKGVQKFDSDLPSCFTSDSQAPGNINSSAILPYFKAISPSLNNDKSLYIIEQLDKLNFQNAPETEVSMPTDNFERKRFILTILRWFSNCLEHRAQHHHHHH
Description: For the indirect ELISA method, antibody binding to wildtype and feline IL-31 15H05 mutant proteins was assessed. All nine canine monoclonal antibodies (ZIL1, ZIL8, ZIL8, ZIL11, ZIL69, ZIL94, ZIL154, ZIL159, and ZIL171) were capable of binding to wildtype feline IL-31 and binding was impacted by mutations in the mAb 15H05 epitope region confirming the correct binding phenotype determined during the initial screening used to identify them. In comparison, the 11E12 antibody bound to the wild-type feline IL-31 and its binding was not impacted by the mutations in the 15H05 epitope region as evidenced by the data in FIG. 4. To confirm binding, biacore analysis was performed using canine, feline, equine, human, feline 15H05 mutant, and feline 11E12 mutant IL-31 proteins as surfaces and a single test concentration of antibody. Similar to ELISA observations, all antibodies tested bound to wildtype feline IL-31. In agreement with the data described above in this section, mouse antibodies 11E12 and 15H05 both bound to canine and feline IL-31 surfaces. Three additional antibodies where shown to have this dual binding property, ZIL69 (partial canine binding), ZIL94, and ZIL159. From this group of nine fully canine antibodies, only ZIL1 and ZIL9 cross-reacted with equine IL-31. […]

[2] = target: T1, equine IL-31 protein (Equine_IL31); experiment: SPR (Biacore), IL-31 surface, single test concentration of antibody (FIG. 4)
[3] = target: T2, wildtype feline IL-31 protein (Feline_IL31_wildtype) (feline); experiment: indirect ELISA, coated IL-31 protein (FIG. 4)
T2 sequence: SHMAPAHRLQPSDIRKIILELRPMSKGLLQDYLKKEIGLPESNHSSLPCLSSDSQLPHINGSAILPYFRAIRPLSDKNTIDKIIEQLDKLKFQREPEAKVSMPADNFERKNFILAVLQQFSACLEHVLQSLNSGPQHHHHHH

[4] = target: T3, mutant feline IL-31 15H05 protein (Feline_IL31_15H05_mutant) (feline); experiment: SPR (Biacore), IL-31 surface, single antibody concentration
T3 sequence: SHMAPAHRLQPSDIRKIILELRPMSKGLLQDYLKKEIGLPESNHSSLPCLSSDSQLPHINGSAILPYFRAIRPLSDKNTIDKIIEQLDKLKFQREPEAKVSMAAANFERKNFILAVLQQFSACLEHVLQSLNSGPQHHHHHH

[5] = target: T2, wildtype feline IL-31 protein (Feline_IL31_wildtype) (feline); experiment: as above
[6] = target: T4, mutant feline IL-31 11E12 protein (Feline_IL31_11E12_mutant) (feline); experiment: as above
T4 sequence: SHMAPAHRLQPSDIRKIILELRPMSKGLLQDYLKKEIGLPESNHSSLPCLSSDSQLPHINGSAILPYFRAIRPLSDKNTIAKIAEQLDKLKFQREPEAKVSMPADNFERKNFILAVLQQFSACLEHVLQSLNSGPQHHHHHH

[7] = target: T2, wildtype feline IL-31 protein (Feline_IL31_wildtype) (feline); experiment: SPR (Biacore), IL-31 surface, single test concentration of antibody (FIG. 4)

Measured: binding

B1: ZIL1 (recombinant fully canine antibody) (antibody, V domains shown)
VH: EVQLVESGGDLVKPGGSLRLSCVASGFTFSSYGMSWVRQAPGKGLQWVAHINSGGSSTYYADAVKGRFTISRDNAKNTLYLQMNSLRAEDTAVYYCVEVYTTLAAFWTDNFDYWGQGTLVTVSS
VL: QSVLTQPTSVSGSLGQRVTISCSGSTNNIGILAATWYQQLPGKAPKVLVYSDGNRPSGVPDRFSGSKSGNSATLTITGLQAEDEADYYCQSFDTTLDAYVFGSGTQLTVLR
binds: [1] | [2]

B2: ZIL9 (recombinant fully canine antibody) (antibody, V domains shown)
VH: EVQLVESGGDLVKPPGSLRLSCVASGFTFSSYDMTWVRQAPGKGLQWVADVNSGGTGTAYAVAVKGRFTISRDNAKKTLYLQMNSLRAEDTAVYYCAKLGVRDGLSVWGQGTLVTVSS
VL: SSVLTQPPSVSVSLGQTATISCSGESLNEYYTQWFQQKAGQAPVLVIYRDTERPSGIPDRFSGSSSGNTHTLTISGARAEDEADYYCESAVDTGTLVFGGGTHLAVLR
binds: [1] | [2]

B3: ZIL94 (recombinant fully canine antibody) (antibody, V domains shown)
VH: EVQLVDSGGDLVKPGGSLRLSCVASGFTFSTYFMSWVRQAPGRGLQWVALISSDGSGTYYADAVKGRFTISRDNAKNTLYLQMNSLRAEDTAMYYCAIFWRAFNDWGQGTLVTVSS
VL: QTVVIQEPSLSVSPGGTVTLTCGLNSGSVSTSNYPGWYQQTRGRTPRTIIYDTGSRPSGVPNRFSGSISGNKAALTITGAQPEDEADYYCSLYTDSDILVFGGGTHLTVLR
notes: also called CAN-ZIL94
not listed: [1] | [2]
binds: all other assays above

B4: ZIL159 (recombinant fully canine antibody) (antibody, V domains shown)
VH: EVQLVESGGDLVKPAGSLRLSCVASGFTFSSYVMTWVRQAPGKGLQWVAGINSEGSRTAYADAVKGRFTISRDNAKNTLYLQIDSLRAEDTAIYYCATGDIVATGTSYWGQGTLVTVSS
VL: SNVLTQPPSVSVSLGQTATISCSGETLNRFYTQWFQQKAGQAPVLVIYKDTERPSGIPDRFSGSSSGNIHTLTISGARAEDEAAYYCKSAVSIDVGVFGGGTHLTVFR
notes: also called CAN-ZIL159
binds: [3] | [5] | [7]
